Source: paper PMC5851652
These are yes or no findings as the source states them, for the method shown. Binding seen in cells or lysates may run through a third protein. Binding can be weak; no strength is given. Tags and fused reporters may be left off the sequences shown.

Assays:
[1] = molecular target: T1, human OASL-V5 WT (human) (UniProt Q15646); assay: co-IP; anti-V5 immunoprecipitation of RIPA lysates of co-transfected 293T cells; immunoblot with anti-GFP and anti-V5
T1 sequence: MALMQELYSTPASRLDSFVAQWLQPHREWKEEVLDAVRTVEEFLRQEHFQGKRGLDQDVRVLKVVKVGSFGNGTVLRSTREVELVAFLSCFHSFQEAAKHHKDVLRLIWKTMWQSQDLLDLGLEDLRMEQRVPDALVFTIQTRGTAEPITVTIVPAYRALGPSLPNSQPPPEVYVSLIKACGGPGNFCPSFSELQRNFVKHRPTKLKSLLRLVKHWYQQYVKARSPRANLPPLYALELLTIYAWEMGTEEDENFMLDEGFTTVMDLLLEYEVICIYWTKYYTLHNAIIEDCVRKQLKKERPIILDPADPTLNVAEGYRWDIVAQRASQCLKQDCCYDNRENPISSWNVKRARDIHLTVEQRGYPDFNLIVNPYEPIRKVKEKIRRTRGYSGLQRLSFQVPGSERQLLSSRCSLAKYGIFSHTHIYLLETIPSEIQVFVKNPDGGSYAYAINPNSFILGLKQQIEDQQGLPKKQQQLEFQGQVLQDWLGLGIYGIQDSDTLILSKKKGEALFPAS

[2] = molecular target: ORF20WT-myc-GFP (Kaposi's sarcoma-associated herpesvirus (KSHV)); assay: co-IP; anti-GFP immunoprecipitation of RIPA lysates of co-transfected 293T cells; immunoblot with anti-V5 and anti-GFP
[3] = molecular target: KSHV ORF20A-myc (Kaposi's sarcoma-associated herpesvirus (KSHV)); assay: co-IP; anti-myc immunoprecipitation of RIPA lysates of co-transfected 293T cells; immunoblot with anti-V5 and anti-myc
[4] = molecular target: KSHV ORF20B-myc (Kaposi's sarcoma-associated herpesvirus (KSHV)); assay: as above
[5] = molecular target: MCMV M76-myc (murine cytomegalovirus (MCMV), Smith strain); assay: as above
[6] = molecular target: HCMV UL76-myc (human cytomegalovirus (HCMV), Merlin); assay: as above

Q: ORF20WT-myc-GFP was tested. Which binding [1] did it give?
A: binds

B1: human OASL-V5 WT (protein, UniProt Q15646 1-514)
chain: MALMQELYSTPASRLDSFVAQWLQPHREWKEEVLDAVRTVEEFLRQEHFQGKRGLDQDVRVLKVVKVGSFGNGTVLRSTREVELVAFLSCFHSFQEAAKHHKDVLRLIWKTMWQSQDLLDLGLEDLRMEQRVPDALVFTIQTRGTAEPITVTIVPAYRALGPSLPNSQPPPEVYVSLIKACGGPGNFCPSFSELQRNFVKHRPTKLKSLLRLVKHWYQQYVKARSPRANLPPLYALELLTIYAWEMGTEEDENFMLDEGFTTVMDLLLEYEVICIYWTKYYTLHNAIIEDCVRKQLKKERPIILDPADPTLNVAEGYRWDIVAQRASQCLKQDCCYDNRENPISSWNVKRARDIHLTVEQRGYPDFNLIVNPYEPIRKVKEKIRRTRGYSGLQRLSFQVPGSERQLLSSRCSLAKYGIFSHTHIYLLETIPSEIQVFVKNPDGGSYAYAINPNSFILGLKQQIEDQQGLPKKQQQLEFQGQVLQDWLGLGIYGIQDSDTLILSKKKGEALFPAS
Q: What does the source list for B1?
A: binding [2]: binds; binding [3]: binds; binding [4]: binds; binding [5]: binds; binding [6]: binds weakly
